No constants are given. Whether binding was seen depends on the method and setting. Binding seen in cells or lysates may run through a third protein. These calls come from enrichment with a bait or labelling near it, and not all partners need be listed. Where a sequence is shown, tags or fusion partners need not be part of it.
Target: T1, eGFP-tagged Myosin-1b (pEGFP Myo1b) (UniProt Q05096)
T1 sequence: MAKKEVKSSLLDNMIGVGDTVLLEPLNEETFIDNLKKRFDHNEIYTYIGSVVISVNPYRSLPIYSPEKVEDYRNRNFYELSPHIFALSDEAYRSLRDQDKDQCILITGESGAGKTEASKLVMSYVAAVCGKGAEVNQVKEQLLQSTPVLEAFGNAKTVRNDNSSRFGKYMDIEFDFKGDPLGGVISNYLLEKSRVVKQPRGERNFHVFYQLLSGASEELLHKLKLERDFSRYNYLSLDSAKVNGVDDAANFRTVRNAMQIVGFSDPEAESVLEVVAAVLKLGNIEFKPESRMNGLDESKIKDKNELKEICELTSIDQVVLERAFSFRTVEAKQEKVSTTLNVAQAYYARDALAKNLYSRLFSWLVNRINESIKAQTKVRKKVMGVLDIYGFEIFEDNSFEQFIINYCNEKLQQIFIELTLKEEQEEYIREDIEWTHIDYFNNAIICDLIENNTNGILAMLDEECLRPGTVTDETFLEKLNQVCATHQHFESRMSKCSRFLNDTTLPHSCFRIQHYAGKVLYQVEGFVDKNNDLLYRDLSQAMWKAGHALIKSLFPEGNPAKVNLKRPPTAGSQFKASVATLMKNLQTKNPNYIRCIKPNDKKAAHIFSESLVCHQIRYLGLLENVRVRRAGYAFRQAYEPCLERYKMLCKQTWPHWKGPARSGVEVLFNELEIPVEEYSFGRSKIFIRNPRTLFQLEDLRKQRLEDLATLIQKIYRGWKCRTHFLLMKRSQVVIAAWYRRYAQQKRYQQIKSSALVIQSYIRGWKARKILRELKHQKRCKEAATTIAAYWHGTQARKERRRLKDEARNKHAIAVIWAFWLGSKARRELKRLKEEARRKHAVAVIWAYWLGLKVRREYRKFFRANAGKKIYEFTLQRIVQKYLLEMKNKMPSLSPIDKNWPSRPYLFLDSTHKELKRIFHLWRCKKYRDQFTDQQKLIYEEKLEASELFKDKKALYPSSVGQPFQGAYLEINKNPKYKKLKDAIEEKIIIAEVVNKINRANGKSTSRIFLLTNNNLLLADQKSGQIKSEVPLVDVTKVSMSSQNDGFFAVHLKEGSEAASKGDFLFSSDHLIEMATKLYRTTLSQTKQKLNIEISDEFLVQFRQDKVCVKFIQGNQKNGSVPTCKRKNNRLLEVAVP
Test: affinity purification with mass spectrometry

- binding: binds
B1: UNC45A (protein, UniProt Q99KD5 1-944)
chain: MTVSGPETPEPRPSDPGASSAEQLRKEGNELFKCGDYEGALTAYTQALSLGATPQDQAILHRNRAACHLKLEDYSKAESEASKAIEKDGGDVKALYRRSQALEKLGRLDQAVLDLKRCVSLEPKNKVFQESLRNIGGQIQEKVRYMSSTDAKVEQMFQILLDPKEKGTEKKQKASQNLVVLAREDAGAEKIFRSNGVQLLQRLLDTEETDLMLAALRTLVGICSEHQSRTVATLSVLGTRRVVSILGVENQAVSLAACHLLQVIFDALKEGVKKGFRGKEGAIIVDPARELKVLINSLLELLTEVGVSGQGRDNALTLLIKMVPRKSPKDPNNSLTLWVIDQGLKKILEVGGSLQDAAGELTVTANSRMSASILLSKLFDDLKCDAERENFHRLCENYIRNWFEGHGLAGKLRAIQTVSCLLQGPCDAGNRALELSGVMESVIALCASEREEEQLVAVEALIHAAGKAKRASFITANGVSLLKDLYKGSERDSIRIRALVGLCKLGSAGGTDFSMKQFAEGSTLKLAKQCRKWLCNDQIDAGTRRWAVEGLAYLTFDADVKEEFVEDEAALKALFQLSRSEERSVLFAVGSALVNCTNSYDYEEPDPKMVELAKYAKQHVPEQHPKDKPSFVRARVKKLLAAGVVSAMTCMVKTESPVLTNSCRELLSRVFLALVEEVEDRGTVVAQGGGKALLPLALEGTDVGQTKAAQALAKLTITSNPEMTFPGERIYEVVRPLVSLLHLSCSGLQNFEALMALTNLAGISERLRQKILKEKAVPMIEGYMFEEHEMIRRAATECMCNLAMSKEVQDLFEAQGNDRLKLLVLYSGEDDELLRRAAAGGLAMLTSMRPALCSRIPQVTTHWLEILQALLLSPNQELQHRGTVVVLNMMQSSKEIAGTLMESEVLEILSVLAKGEESPVTRAAAACLEKAVEYRLIQPNQDGE
